Assay results: paper PMC8102066, “Differences in interactions between transmembrane domains tune the activation of metabotropic glutamate receptors” (eLife, 2021)
Results are given in words; binding and its absence hold for the method and conditions named. Some binding calls cover weakened binding; strength is not graded here. Where a sequence is shown, tags or fusion partners need not be part of it.

Target: HA-SNAP-mGluR3 (rat), P31422
Assay: single-molecule pulldown (SiMPull) with photobleaching step counting; HEK 293T cells surface-labelled with BG-LD555, lysed in 1.2% IGEPAL, diluted in 0.1% IGEPAL buffer; HA-SNAP constructs captured by biotinylated anti-HA antibody on NeutrAvidin/PEG slides; TIRF; percent dimerization = two-step bleaching min-max normalised (5% background, 55% for full-length mGluR2); in some experiments saturating ligands (TASP, MNI …)
Details: remark: other sources report otherwise

- binding: binds
B1: HA-SNAP-mGluR3, P31422 23-879 (receptor)
chain: LGDHNFMRREIKIEGDLVLGGLFPINEKGTGTEECGRINEDRGIQRLEAMLFAIDEINKDNYLLPGVKLGVHILDTCSRDTYALEQSLEFVRASLTKVDEAEYMCPDGSYAIQENIPLLIAGVIGGSYSSVSIQVANLLRLFQIPQISYASTSAKLSDKSRYDYFARTVPPDFYQAKAMAEILRFFNWTYVSTVASEGDYGETGIEAFEQEARLRNICIATAEKVGRSNIRKSYDSVIRELLQKPNARVVVLFMRSDDSRELIAAANRVNASFTWVASDGWGAQESIVKGSEHVAYGAITLELASHPVRQFDRYFQSLNPYNNHRNPWFRDFWEQKFQCSLQNKRNHRQVCDKHLAIDSSNYEQESKIMFVVNAVYAMAHALHKMQRTLCPNTTKLCDAMKILDGKKLYKEYLLKINFTAPFNPNKGADSIVKFDTFGDGMGRYNVFNLQQTGGKYSYLKVGHWAETLSLDVDSIHWSRNSVPTSQCSDPCAPNEMKNMQPGDVCCWICIPCEPYEYLVDEFTCMDCGPGQWPTADLSGCYNLPEDYIKWEDAWAIGPVTIACLGFLCTCIVITVFIKHNNTPLVKASGRELCYILLFGVSLSYCMTFFFIAKPSPVICALRRLGLGTSFAICYSALLTKTNCIARIFDGVKNGAQRPKFISPSSQVFICLGLILVQIVMVSVWLILETPGTRRYTLPEKRETVILKCNVKDSSMLISLTYDVVLVILCTVYAFKTRKCPENFNEAKFIGFTMYTTCIIWLAFLPIFYVTSSDYRVQTTTMCISVSLSGFVVLGCLFAPKVHIVLFQPQKNVVTHRLHLNRFSVSGTATTYSQSSASTYVPTVCNGREVLDSTTSSL
modifications: here or on the partner: SNAP tag labelled with BG-LD555 (BG-LD655 in two-colour SiMPull); SNAP tag labelled with BG-LD555 (BG-LD655 in two-colour SiMPull)
